By UniProt entry, the sequences of proteins in these tests, tags left out. Where a name states a change or a piece, a line headed by the entry shows the natural chain unless it says otherwise. Chains listed by the source or under a name are the forms on record and can include a tag or linker.
CD44 standard isoform, Ha-tagged (human) (P16070-12, form named): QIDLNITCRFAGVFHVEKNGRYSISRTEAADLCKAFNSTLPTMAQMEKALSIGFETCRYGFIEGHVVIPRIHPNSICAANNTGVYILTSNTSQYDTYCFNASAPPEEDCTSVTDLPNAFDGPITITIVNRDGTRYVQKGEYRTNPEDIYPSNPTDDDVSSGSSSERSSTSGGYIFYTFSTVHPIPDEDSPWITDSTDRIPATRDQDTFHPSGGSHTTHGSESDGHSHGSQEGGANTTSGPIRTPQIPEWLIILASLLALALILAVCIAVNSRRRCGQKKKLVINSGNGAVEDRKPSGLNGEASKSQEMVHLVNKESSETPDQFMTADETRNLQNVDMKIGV

According to paper PMC7601683:

Experiments:
Assay in all cases: co-IP; HEK293T cells transiently co-transfected with FLAG-tagged podoplanin constructs and Ha-tagged CD44 isoforms; lysed after 24 h in IP buffer (50 mM Tris-HCl pH 7.5, 100 mM NaCl, 5 mM EDTA, 0.5% NP-40, 10% glycerol); about 750 μg lysate, anti-FLAG mAb and protein G Dynabeads overnight at 4 °C; blot with anti-Ha
[1] = target: PDPN-I2, FLAG-tagged (island 2 glycosylation mutant) (human) (UniProt Q86YL7)
[2] = target: PDPN-I1, FLAG-tagged (island 1 glycosylation mutant) (human) (UniProt Q86YL7)
[3] = target: PDPN-ΔPLAG3, FLAG-tagged (human) (UniProt Q86YL7)
[4] = target: T1, podoplanin wild-type, FLAG-tagged (human) (human) (UniProt Q86YL7)
T1 sequence: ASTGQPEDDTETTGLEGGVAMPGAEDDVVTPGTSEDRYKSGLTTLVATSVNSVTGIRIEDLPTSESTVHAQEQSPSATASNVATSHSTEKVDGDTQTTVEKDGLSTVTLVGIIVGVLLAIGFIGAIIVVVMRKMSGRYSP

“CD44 standard isoform, Ha-tagged (human) (from UniProt P16070-12 21-361)” was tested, and the binding [1] was “binds”, the binding [2] was “binds” and the binding [3] was “binds”.

For CD44v6-10 isoform, Ha-tagged (human), the binding [4] was “binds”.

Results are given in words; binding and its absence hold for the method and conditions named. Binding seen in cells or lysates may run through a third protein. A result given as binding can be weak or reduced; the word gives no strength. For some of these results: Tags and fused reporters may be left off the sequences shown.
